Laboratory results from paper PMC10347840.
These are yes or no findings as the source states them, for the method shown. In cells and extracts the contact can be indirect. Some binding calls cover weakened binding; strength is not graded here.

Chains of the proteins cited; added tags and fusions are not shown.
UniProt Q12888: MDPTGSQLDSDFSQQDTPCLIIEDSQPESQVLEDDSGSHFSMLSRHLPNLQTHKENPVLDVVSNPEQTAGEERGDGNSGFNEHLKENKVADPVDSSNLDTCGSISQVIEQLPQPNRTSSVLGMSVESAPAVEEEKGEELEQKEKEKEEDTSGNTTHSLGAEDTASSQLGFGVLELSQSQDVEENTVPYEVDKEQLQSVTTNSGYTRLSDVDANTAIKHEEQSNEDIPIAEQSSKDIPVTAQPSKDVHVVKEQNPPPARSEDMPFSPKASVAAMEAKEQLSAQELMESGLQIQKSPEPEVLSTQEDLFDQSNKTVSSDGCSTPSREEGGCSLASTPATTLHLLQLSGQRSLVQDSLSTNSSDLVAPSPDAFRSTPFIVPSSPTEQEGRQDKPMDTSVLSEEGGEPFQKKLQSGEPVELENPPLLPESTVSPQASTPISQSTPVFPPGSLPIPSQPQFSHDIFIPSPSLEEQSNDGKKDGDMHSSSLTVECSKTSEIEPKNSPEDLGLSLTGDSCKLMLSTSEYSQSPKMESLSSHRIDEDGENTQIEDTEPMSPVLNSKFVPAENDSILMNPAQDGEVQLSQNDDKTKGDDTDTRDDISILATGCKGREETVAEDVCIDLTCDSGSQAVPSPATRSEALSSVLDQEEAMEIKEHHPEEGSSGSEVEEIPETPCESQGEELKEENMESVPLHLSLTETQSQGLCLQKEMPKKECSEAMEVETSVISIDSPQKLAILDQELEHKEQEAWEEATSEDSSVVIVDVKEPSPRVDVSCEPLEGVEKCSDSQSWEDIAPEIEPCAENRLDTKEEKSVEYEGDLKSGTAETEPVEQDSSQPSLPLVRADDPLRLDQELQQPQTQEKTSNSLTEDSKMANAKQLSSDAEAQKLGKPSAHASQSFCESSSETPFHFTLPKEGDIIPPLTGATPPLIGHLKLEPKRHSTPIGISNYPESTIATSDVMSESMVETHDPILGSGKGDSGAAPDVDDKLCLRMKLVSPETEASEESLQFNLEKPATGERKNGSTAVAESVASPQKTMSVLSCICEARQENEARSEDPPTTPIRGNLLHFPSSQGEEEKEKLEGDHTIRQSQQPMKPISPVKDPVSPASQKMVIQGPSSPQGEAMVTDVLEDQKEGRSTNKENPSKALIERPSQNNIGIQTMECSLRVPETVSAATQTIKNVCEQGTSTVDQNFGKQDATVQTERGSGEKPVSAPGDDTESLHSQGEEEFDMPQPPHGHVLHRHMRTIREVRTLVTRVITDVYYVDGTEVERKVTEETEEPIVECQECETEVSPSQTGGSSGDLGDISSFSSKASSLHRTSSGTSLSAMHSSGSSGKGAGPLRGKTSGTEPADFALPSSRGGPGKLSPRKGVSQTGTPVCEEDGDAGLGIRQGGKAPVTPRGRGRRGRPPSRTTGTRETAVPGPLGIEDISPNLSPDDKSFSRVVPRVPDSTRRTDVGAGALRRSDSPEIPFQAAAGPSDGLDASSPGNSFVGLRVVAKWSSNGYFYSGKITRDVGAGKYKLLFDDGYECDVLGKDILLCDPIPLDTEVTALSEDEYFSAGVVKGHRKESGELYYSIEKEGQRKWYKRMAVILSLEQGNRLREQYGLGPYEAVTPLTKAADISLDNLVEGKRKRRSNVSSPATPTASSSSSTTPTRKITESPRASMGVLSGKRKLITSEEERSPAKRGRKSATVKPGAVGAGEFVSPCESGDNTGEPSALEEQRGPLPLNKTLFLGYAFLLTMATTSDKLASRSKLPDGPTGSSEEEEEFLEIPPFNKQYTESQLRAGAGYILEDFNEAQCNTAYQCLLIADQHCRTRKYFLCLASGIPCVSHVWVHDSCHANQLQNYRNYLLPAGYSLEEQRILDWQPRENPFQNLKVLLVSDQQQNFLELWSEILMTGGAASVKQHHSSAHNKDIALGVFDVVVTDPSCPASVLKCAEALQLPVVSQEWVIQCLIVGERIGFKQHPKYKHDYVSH

Target: 53BP1 (human (endogenous in NKYS)) (UniProt Q12888)
Assay: co-IP; NKYS cell lysate (1 mg) in IP lysis buffer, antibody overnight at 4 °C, agarose beads 1 h at RT, five washes, SDS-PAGE and blot; which protein was precipitated is not given

B1: LMO2 (protein, UniProt P25791 1-158)
chain: MSSAIERKSLDPSEEPVDEVLQIPPSLLTCGGCQQNIGDRYFLKAIDQYWHEDCLSCDLCGCRLGEVGRRLYYKLGRKLCRRDYLRLFGQDGLCASCDKRIRAYEMTMRVKDKVYHLECFKCAACQKHFCVGDRYLLINSDIVCEQDIYEWTKINGMI
  binding: binds
